The supplement of paper PMC12823440, “Inhibitors supercharge kinase turnover through native proteolytic circuits” (Nature, 2025)
Where a name gives a salt, the structure may show the parent alone. Some of the results follow. The calls rarely recur for the same compound in another form.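 Kinases, fused to nanoluciferase, were expressed in K562 cells; luminescence was measured every 4 h from 2 to 18 h as percent of control (DMSO = 100%, positive control = 0%). A time point is decreased if signal falls significantly (2 sigma). Hits were called by the authors by a rule that is not shown; the count of time points alone does not decide it.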

By UniProt entry, the sequences of proteins in these tests, tags left out.
UniProt P29317, whole entry: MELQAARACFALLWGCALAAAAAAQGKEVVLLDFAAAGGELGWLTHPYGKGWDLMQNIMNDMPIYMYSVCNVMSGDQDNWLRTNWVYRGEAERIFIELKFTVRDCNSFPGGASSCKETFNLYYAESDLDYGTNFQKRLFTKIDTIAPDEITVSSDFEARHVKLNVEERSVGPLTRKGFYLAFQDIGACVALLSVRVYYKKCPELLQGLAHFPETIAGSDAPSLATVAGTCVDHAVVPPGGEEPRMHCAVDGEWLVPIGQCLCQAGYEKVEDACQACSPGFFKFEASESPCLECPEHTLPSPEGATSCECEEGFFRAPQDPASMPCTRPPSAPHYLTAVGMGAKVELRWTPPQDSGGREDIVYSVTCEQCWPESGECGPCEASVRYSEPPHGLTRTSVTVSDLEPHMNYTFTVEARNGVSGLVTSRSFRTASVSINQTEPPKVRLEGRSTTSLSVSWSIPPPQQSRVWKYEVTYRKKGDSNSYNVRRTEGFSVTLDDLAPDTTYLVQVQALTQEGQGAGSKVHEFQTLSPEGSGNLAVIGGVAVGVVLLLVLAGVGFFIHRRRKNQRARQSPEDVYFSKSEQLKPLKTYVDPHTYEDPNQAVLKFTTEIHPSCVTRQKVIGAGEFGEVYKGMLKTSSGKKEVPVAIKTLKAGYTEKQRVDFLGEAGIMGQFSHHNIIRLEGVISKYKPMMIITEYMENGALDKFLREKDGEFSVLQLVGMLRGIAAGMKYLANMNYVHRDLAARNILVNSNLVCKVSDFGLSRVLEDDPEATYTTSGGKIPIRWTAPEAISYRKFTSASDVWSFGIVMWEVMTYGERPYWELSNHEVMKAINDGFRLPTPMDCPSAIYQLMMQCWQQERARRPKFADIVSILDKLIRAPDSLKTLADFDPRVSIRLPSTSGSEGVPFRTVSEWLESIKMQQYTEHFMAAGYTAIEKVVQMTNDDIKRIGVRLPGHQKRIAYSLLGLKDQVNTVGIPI
UniProt P21860, whole entry: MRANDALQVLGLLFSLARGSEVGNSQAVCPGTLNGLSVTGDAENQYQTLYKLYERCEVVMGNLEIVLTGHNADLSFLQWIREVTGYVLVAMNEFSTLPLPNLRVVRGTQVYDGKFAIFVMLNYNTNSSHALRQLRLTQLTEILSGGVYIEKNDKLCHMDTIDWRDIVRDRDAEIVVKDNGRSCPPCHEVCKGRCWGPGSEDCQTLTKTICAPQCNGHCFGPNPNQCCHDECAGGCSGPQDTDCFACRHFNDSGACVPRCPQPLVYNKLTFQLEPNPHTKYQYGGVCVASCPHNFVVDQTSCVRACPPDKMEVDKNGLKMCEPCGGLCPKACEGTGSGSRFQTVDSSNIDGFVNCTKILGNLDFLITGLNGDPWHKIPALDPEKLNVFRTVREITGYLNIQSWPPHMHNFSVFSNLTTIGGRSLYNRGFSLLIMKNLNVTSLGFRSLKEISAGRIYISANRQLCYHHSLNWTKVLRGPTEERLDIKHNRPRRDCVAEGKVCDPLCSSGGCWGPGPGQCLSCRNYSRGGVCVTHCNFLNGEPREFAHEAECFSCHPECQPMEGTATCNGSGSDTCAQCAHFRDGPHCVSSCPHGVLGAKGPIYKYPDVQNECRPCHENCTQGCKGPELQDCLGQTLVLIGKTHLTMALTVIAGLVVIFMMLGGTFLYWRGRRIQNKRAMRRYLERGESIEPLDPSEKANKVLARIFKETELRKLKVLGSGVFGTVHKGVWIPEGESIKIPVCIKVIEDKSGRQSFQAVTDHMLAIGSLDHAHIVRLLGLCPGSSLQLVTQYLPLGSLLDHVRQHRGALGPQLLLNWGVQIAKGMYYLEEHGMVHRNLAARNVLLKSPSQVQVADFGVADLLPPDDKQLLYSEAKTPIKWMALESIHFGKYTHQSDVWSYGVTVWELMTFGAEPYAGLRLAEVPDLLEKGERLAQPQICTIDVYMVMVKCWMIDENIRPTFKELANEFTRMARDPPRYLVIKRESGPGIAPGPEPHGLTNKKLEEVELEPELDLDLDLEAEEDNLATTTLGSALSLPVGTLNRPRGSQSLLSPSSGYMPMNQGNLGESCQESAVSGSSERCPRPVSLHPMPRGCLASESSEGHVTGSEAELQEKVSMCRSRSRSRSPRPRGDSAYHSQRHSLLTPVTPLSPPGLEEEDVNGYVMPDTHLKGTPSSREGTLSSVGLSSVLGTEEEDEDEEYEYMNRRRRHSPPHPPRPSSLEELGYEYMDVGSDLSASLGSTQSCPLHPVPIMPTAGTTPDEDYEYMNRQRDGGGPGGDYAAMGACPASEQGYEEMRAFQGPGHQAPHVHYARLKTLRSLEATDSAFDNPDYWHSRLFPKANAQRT
UniProt Q15303, whole entry R711C: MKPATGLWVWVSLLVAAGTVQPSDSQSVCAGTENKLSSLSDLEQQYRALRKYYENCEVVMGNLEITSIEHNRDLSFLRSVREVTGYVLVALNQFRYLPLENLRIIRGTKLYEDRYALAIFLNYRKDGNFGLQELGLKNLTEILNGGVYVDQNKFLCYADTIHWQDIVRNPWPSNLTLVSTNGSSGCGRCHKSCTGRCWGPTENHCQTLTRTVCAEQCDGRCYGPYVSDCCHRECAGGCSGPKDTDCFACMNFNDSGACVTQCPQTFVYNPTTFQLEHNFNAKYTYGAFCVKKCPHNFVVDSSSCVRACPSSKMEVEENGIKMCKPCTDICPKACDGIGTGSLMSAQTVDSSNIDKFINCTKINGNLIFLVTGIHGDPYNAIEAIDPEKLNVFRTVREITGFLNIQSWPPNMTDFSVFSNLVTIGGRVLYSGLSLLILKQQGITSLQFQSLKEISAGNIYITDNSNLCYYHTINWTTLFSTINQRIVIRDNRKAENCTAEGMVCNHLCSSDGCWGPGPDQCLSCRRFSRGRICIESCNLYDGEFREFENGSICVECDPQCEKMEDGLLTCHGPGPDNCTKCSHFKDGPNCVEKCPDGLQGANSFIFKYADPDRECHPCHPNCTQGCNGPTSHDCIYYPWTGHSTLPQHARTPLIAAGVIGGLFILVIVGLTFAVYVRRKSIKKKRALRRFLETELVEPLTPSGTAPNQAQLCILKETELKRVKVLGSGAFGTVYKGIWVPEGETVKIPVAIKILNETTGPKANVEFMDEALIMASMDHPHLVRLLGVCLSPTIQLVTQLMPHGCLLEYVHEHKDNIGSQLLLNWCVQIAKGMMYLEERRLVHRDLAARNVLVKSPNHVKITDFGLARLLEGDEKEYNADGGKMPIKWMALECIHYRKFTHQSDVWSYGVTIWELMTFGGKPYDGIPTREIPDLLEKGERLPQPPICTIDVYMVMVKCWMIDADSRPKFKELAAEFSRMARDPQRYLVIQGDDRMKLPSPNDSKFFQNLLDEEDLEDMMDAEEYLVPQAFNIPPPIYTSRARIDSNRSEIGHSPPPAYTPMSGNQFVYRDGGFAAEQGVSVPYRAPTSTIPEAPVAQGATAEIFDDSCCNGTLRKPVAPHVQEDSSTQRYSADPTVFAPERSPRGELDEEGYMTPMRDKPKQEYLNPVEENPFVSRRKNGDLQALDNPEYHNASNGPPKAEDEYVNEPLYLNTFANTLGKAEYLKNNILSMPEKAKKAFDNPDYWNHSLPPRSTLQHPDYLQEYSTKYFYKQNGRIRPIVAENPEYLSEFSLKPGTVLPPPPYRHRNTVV

Assays:
Test in all cases: kinase-Nluc reporter destabilization hit call (1 = scored as downregulated) (binary); higher = compound decreases kinase abundance
Conditions in all cases: K562, 2-18 h
EGFR = EGFR (UniProt P00533)
EGFR_G719S = EGFR_G719S (UniProt P00533)
EGFR_G719S_T790M = EGFR_G719S_T790M (UniProt P00533)
EGFR_L718V = EGFR_L718V (UniProt P00533)
EGFR_L858R = EGFR_L858R (UniProt P00533)
EGFR_L861Q = EGFR_L861Q (UniProt P00533)
EGFR_T790M = EGFR_T790M (UniProt P00533)
EPHA2 = EPHA2 (UniProt P29317)
ERBB3 = ERBB3 (UniProt P21860)
[1] = molecular target: ERBB4_R711C (clone: ERBB4_mut) (UniProt Q15303)

Measured: kinase-Nluc reporter destabilization hit call

Cc1cc2c(F)c(Oc3ncnn4cc(OC[C@@H](C)O)c(C)c34)ccc2[nH]1 [Brivanib]
inactive: EGFR; 10 µM 0 | EGFR_G719S; 10 µM 0 | EGFR_G719S_T790M; 10 µM 0 | EGFR_L718V; 10 µM 0 | EGFR_L858R; 10 µM 0 | EGFR_L861Q; 10 µM 0 | EGFR_T790M; 10 µM 0 | EPHA2; 10 µM 0 | ERBB3; 10 µM 0 | [1]; 10 µM 0

C[C@@H]1CN(C(=O)Nc2ccc(-c3nc(N4CCOCC4)c4cnn(CCCCCCC(=O)NO)c4n3)cc2)CCO1 [HDACs/mTOR Inhibitor 1]
inactive: EGFR; 10 µM 0 | EGFR_G719S; 10 µM 0 | EGFR_G719S_T790M; 10 µM 0 | EGFR_L718V; 10 µM 0 | EGFR_L858R; 10 µM 0 | EGFR_L861Q; 10 µM 0 | EGFR_T790M; 10 µM 0 | EPHA2; 10 µM 0 | ERBB3; 10 µM 0 | [1]; 10 µM 0

C[C@H]1Oc2cc(cnc2N)-c2c(nn(C)c2C#N)CN(C)C(=O)c2ccc(F)cc21 [Lorlatinib]
inactive: EGFR; 10 µM 0 | EGFR_G719S; 10 µM 0 | EGFR_G719S_T790M; 10 µM 0 | EGFR_L718V; 10 µM 0 | EGFR_L858R; 10 µM 0 | EGFR_L861Q; 10 µM 0 | EGFR_T790M; 10 µM 0 | EPHA2; 10 µM 0 | ERBB3; 10 µM 0 | [1]; 10 µM 0

CN1CCN(c2ccc3nc(-c4c(N)c5c(F)cccc5[nH]c4=O)[nH]c3c2)CC1 [Dovitinib]
inactive: EGFR; 2.5 µM 0 | EGFR_G719S; 2.5 µM 0 | EGFR_G719S_T790M; 2.5 µM 0 | EGFR_L718V; 2.5 µM 0 | EGFR_L858R; 2.5 µM 0 | EGFR_L861Q; 2.5 µM 0 | EGFR_T790M; 2.5 µM 0 | EPHA2; 2.5 µM 0 | ERBB3; 2.5 µM 0

CC(C)N(CCC(=O)c1ccc2ccccc2c1)Cc1ccccc1
inactive: EGFR; 10 µM 0 | EGFR_G719S; 10 µM 0 | EGFR_G719S_T790M; 10 µM 0 | EGFR_L718V; 10 µM 0 | EGFR_L858R; 10 µM 0 | EGFR_L861Q; 10 µM 0 | EGFR_T790M; 10 µM 0 | EPHA2; 10 µM 0 | ERBB3; 10 µM 0 | [1]; 10 µM 0

C=CC(=O)N1C[C@@H](Nc2ncnc3[nH]ccc23)CC[C@H]1C [(2R,5S)-Ritlecitinib]
inactive: EGFR; 10 µM 0 | EGFR_G719S; 10 µM 0 | EGFR_G719S_T790M; 10 µM 0 | EGFR_L718V; 10 µM 0 | EGFR_L858R; 10 µM 0 | EGFR_L861Q; 10 µM 0 | EGFR_T790M; 10 µM 0 | EPHA2; 10 µM 0 | ERBB3; 10 µM 0 | [1]; 10 µM 0

Cc1ccc(Nc2nccc(N(C)c3ccc4c(C)n(C)nc4c3)n2)cc1S(N)(=O)=O [Pazopanib (Hydrochloride)]
inactive: EGFR; 10 µM 0 | EGFR_G719S; 10 µM 0 | EGFR_G719S_T790M; 10 µM 0 | EGFR_L718V; 10 µM 0 | EGFR_L858R; 10 µM 0 | EGFR_L861Q; 10 µM 0 | EGFR_T790M; 10 µM 0 | EPHA2; 10 µM 0 | ERBB3; 10 µM 0 | [1]; 10 µM 0

COc1ccc(-c2c[nH]c3nccc(-c4ccsc4)c23)c(OC)c1
inactive: EGFR; 10 µM 0 | EGFR_G719S; 10 µM 0 | EGFR_G719S_T790M; 10 µM 0 | EGFR_L718V; 10 µM 0 | EGFR_L858R; 10 µM 0 | EGFR_L861Q; 10 µM 0 | EGFR_T790M; 10 µM 0 | EPHA2; 10 µM 0 | ERBB3; 10 µM 0 | [1]; 10 µM 0

Cc1ccc2c(=O)c3cccc(CC(=O)O)c3oc2c1C [Vadimezan]
inactive: EGFR; 10 µM 0 | EGFR_G719S; 10 µM 0 | EGFR_G719S_T790M; 10 µM 0 | EGFR_L718V; 10 µM 0 | EGFR_L858R; 10 µM 0 | EGFR_L861Q; 10 µM 0 | EGFR_T790M; 10 µM 0 | EPHA2; 10 µM 0 | ERBB3; 10 µM 0 | [1]; 10 µM 0

CCCOc1ccc(C=C2SC(=O)NC2=O)cc1
inactive: EGFR; 10 µM 0 | EGFR_G719S; 10 µM 0 | EGFR_G719S_T790M; 10 µM 0 | EGFR_L718V; 10 µM 0 | EGFR_L858R; 10 µM 0 | EGFR_L861Q; 10 µM 0 | EGFR_T790M; 10 µM 0 | EPHA2; 10 µM 0 | ERBB3; 10 µM 0 | [1]; 10 µM 0

CC(C)[C@@](C)(O)[C@@H]1CN(c2nc(-c3[nH]nc4ncccc34)c(F)cc2Cl)CCN1
inactive: EGFR; 10 µM 0 | EGFR_G719S; 10 µM 0 | EGFR_G719S_T790M; 10 µM 0 | EGFR_L718V; 10 µM 0 | EGFR_L858R; 10 µM 0 | EGFR_L861Q; 10 µM 0 | EGFR_T790M; 10 µM 0 | EPHA2; 10 µM 0 | ERBB3; 10 µM 0 | [1]; 10 µM 0

Fc1ccc(-c2nc(-c3ccc4ccccc4c3F)[nH]c2-c2ccncc2)cc1
inactive: EGFR; 10 µM 0 | EGFR_G719S; 10 µM 0 | EGFR_G719S_T790M; 10 µM 0 | EGFR_L718V; 10 µM 0 | EGFR_L858R; 10 µM 0 | EGFR_L861Q; 10 µM 0 | EGFR_T790M; 10 µM 0 | EPHA2; 10 µM 0 | ERBB3; 10 µM 0 | [1]; 10 µM 0

C=CC(=O)N(C)CCOc1c(N)ncnc1-c1cc(F)cc(NC(=O)c2ccc(C3CC3)cc2F)c1C [Remibrutinib]
inactive: EGFR; 10 µM 0 | EGFR_G719S; 10 µM 0 | EGFR_G719S_T790M; 10 µM 0 | EGFR_L718V; 10 µM 0 | EGFR_L858R; 10 µM 0 | EGFR_L861Q; 10 µM 0 | EGFR_T790M; 10 µM 0 | EPHA2; 10 µM 0 | ERBB3; 10 µM 0 | [1]; 10 µM 0

Cc1cc2ncnn2cc1Nc1ncc2c(n1)n(C1CCOCC1)c(=O)n2C
inactive: EGFR; 10 µM 0 | EGFR_G719S; 10 µM 0 | EGFR_G719S_T790M; 10 µM 0 | EGFR_L718V; 10 µM 0 | EGFR_L858R; 10 µM 0 | EGFR_L861Q; 10 µM 0 | EGFR_T790M; 10 µM 0 | EPHA2; 10 µM 0 | ERBB3; 10 µM 0 | [1]; 10 µM 0

CCCCCC1CC1CC1CC1CCCCCCCC(=O)OC (centres undefined)
inactive: EGFR; 10 µM 0 | EGFR_G719S; 10 µM 0 | EGFR_G719S_T790M; 10 µM 0 | EGFR_L718V; 10 µM 0 | EGFR_L858R; 10 µM 0 | EGFR_L861Q; 10 µM 0 | EGFR_T790M; 10 µM 0 | EPHA2; 10 µM 0 | ERBB3; 10 µM 0 | [1]; 10 µM 0

CC1(C)C(=O)N([C@H]2CCc3c(O)cccc32)c2nc(Nc3cccc(CN4CCCC4)c3)ncc21
inactive: EGFR; 2.5 µM 0 | EGFR_G719S; 2.5 µM 0 | EGFR_G719S_T790M; 2.5 µM 0 | EGFR_L718V; 2.5 µM 0 | EGFR_L858R; 2.5 µM 0 | EGFR_L861Q; 2.5 µM 0 | EGFR_T790M; 2.5 µM 0 | EPHA2; 2.5 µM 0 | ERBB3; 2.5 µM 0 | [1]; 2.5 µM 0

COc1cc(N2CCN(C)CC2)ccc1Nc1nccc(-c2cn(C)c3cnccc23)n1
inactive: EGFR; 10 µM 0 | EGFR_G719S; 10 µM 0 | EGFR_G719S_T790M; 10 µM 0 | EGFR_L718V; 10 µM 0 | EGFR_L858R; 10 µM 0 | EGFR_L861Q; 10 µM 0 | EGFR_T790M; 10 µM 0 | EPHA2; 10 µM 0 | ERBB3; 10 µM 0 | [1]; 10 µM 0

O=C(Nc1cccc(Nc2nccc(Nc3cccc(C(F)(F)F)c3)n2)c1)C1CC1 [Aurora kinase inhibitor-3]
inactive: EGFR; 2.5 µM 0 | EGFR_G719S; 2.5 µM 0 | EGFR_G719S_T790M; 2.5 µM 0 | EGFR_L718V; 2.5 µM 0 | EGFR_L858R; 2.5 µM 0 | EGFR_L861Q; 2.5 µM 0 | EGFR_T790M; 2.5 µM 0 | EPHA2; 2.5 µM 0 | ERBB3; 2.5 µM 0 | [1]; 2.5 µM 0

CC#CC(=O)N1CCC[C@H]1c1nc(-c2ccc(C(=O)Nc3ccccn3)cc2)c2c(N)nccn12 [Acalabrutinib]
inactive: EGFR; 10 µM 0 | EGFR_G719S; 10 µM 0 | EGFR_G719S_T790M; 10 µM 0 | EGFR_L718V; 10 µM 0 | EGFR_L858R; 10 µM 0 | EGFR_L861Q; 10 µM 0 | EGFR_T790M; 10 µM 0 | EPHA2; 10 µM 0 | ERBB3; 10 µM 0 | [1]; 10 µM 0

COc1ccc(-c2cc3nccn3c(Nc3ncccc3C(N)=O)n2)cc1OC [BAY 61-3606 (dihydrochloride)]
inactive: EGFR; 2.5 µM 0 | EGFR_G719S; 2.5 µM 0 | EGFR_G719S_T790M; 2.5 µM 0 | EGFR_L718V; 2.5 µM 0 | EGFR_L858R; 2.5 µM 0 | EGFR_L861Q; 2.5 µM 0 | EGFR_T790M; 2.5 µM 0 | EPHA2; 2.5 µM 0 | ERBB3; 2.5 µM 0 | [1]; 2.5 µM 0

Ordered by SMILES length (smallest number first): 4 of the compounds above
Cc1cc2ncnn2cc1Nc1ncc2c(n1)n(C1CCOCC1)c(=O)n2C
inactive: EGFR; 10 µM 0 | EGFR_G719S; 10 µM 0 | EGFR_G719S_T790M; 10 µM 0 | EGFR_L718V; 10 µM 0 | EGFR_L858R; 10 µM 0 | EGFR_L861Q; 10 µM 0 | EGFR_T790M; 10 µM 0 | EPHA2; 10 µM 0 | ERBB3; 10 µM 0 | [1]; 10 µM 0

COc1cc(N2CCN(C)CC2)ccc1Nc1nccc(-c2cn(C)c3cnccc23)n1
inactive: EGFR; 10 µM 0 | EGFR_G719S; 10 µM 0 | EGFR_G719S_T790M; 10 µM 0 | EGFR_L718V; 10 µM 0 | EGFR_L858R; 10 µM 0 | EGFR_L861Q; 10 µM 0 | EGFR_T790M; 10 µM 0 | EPHA2; 10 µM 0 | ERBB3; 10 µM 0 | [1]; 10 µM 0

CC#CC(=O)N1CCC[C@H]1c1nc(-c2ccc(C(=O)Nc3ccccn3)cc2)c2c(N)nccn12 [Acalabrutinib]
inactive: EGFR; 10 µM 0 | EGFR_G719S; 10 µM 0 | EGFR_G719S_T790M; 10 µM 0 | EGFR_L718V; 10 µM 0 | EGFR_L858R; 10 µM 0 | EGFR_L861Q; 10 µM 0 | EGFR_T790M; 10 µM 0 | EPHA2; 10 µM 0 | ERBB3; 10 µM 0 | [1]; 10 µM 0

CC1(C)C(=O)N([C@H]2CCc3c(O)cccc32)c2nc(Nc3cccc(CN4CCCC4)c3)ncc21
inactive: EGFR; 2.5 µM 0 | EGFR_G719S; 2.5 µM 0 | EGFR_G719S_T790M; 2.5 µM 0 | EGFR_L718V; 2.5 µM 0 | EGFR_L858R; 2.5 µM 0 | EGFR_L861Q; 2.5 µM 0 | EGFR_T790M; 2.5 µM 0 | EPHA2; 2.5 µM 0 | ERBB3; 2.5 µM 0 | [1]; 2.5 µM 0
